For the test, the system named is Salmonella enterica serovar Typhimurium SL1344. Briefly: bacterial growth OD600 after 18 h with compound and polymyxin B; higher = more bacterial growth (less inhibition). The settings on record: 50 µM, Mueller-Hinton broth.

Some of the results follow. Values are raw readings; no control value is given beside them.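 Primary screen: polymyxin B was added at a level permeabilizing Salmonella outer membranes while sparing inner membranes. DMSO wells, both with and without polymyxin B, established maximum growth. Plate-to-plate variation meant each plate was ranked on its own, and the lowest-OD600 compounds were selected as hits.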

As for `CC(C)NC1CCCc2nc(-c3ccccc3)ncc21` (configuration not stated), under “polymyxin B 1 µg/mL”, the “bacterial growth OD600” value worked out at 0.796.

`OCC1CCN(c2ncc3c(n2)CCCC3NCc2cccc(F)c2)CC1` (configuration not stated): the “bacterial growth OD600” value (polymyxin B 0.75 µg/mL) was found to be 0.787.

For `Cc1ccccc1Oc1ncccc1CNC(=O)CCc1c(C)nn(C)c1C`, where the note is “polymyxin B 1 µg/mL”, the “bacterial growth OD600” value stood at 0.964.

Take `Cc1nc2cc(OCc3cc(C(=O)N4CCN(C)C(c5ccccc5)C4)no3)ccc2s1` (configuration not stated): the “bacterial growth OD600” value (polymyxin B 1 µg/mL) came out at 0.011.

In the case of `CN(C)C(=O)N1CCC(C(=O)NC2CC(C)(C)Cc3c2cnn3-c2ccccc2)CC1` (configuration not stated), where the note is “polymyxin B 1 µg/mL”, the “bacterial growth OD600” value was determined as 0.913.

In the case of `CCn1ccnc1CN1CCCC1C(=O)Nc1ccc(-n2ccnc2C)cc1` (configuration not stated), the “bacterial growth OD600” value (polymyxin B 0.75 µg/mL) was found to be 0.893.

In the case of `COCC1CCN(c2ccc(C(=O)NCCCc3c(C)noc3C)cn2)C1` (configuration not stated), the “bacterial growth OD600” value (polymyxin B 1 µg/mL) was 1.21.

With `CN(Cc1ccc2ccccc2n1)C(=O)c1ccc(N2CC[C@H](O)C2)nc1`, the “bacterial growth OD600” value (polymyxin B 1 µg/mL) worked out at 0.905.

As to `CCCCc1nc2cc(C(=O)NCC(O)CC)ccc2o1` (configuration not stated), the “bacterial growth OD600” value (polymyxin B 1 µg/mL) was found to be 0.948.

For `COc1cc(CN(C(=O)C2CC2)[C@H]2CCCCNC2=O)cc(OC)c1OCCc1ccsc1`, the “bacterial growth OD600” value (polymyxin B 0.75 µg/mL) worked out at 0.892.

For `CC(C(=O)N1CCc2[nH]nc(-c3ccc(Cl)cc3)c2C1)N1CCCC1=O` (configuration not stated), the “bacterial growth OD600” value (polymyxin B 0.75 µg/mL) amounted to 0.86.

On to `COCCC(=O)N1CCCC(CNS(=O)(=O)c2ccc(OC)cc2)C1` (configuration not stated), for which, where the note is “polymyxin B 1 µg/mL”, the “bacterial growth OD600” value was found to be 0.925.

In the case of `COCCn1cnc2cc(NC(=O)C3CCCCC3)cc(C(=O)N(C)C(C)c3nc(C)cs3)c21` (configuration not stated), the “bacterial growth OD600” value (polymyxin B 0.75 µg/mL) amounted to 0.813.

`Cc1ccsc1C(=O)N1CCC(C2CCN(c3ncccn3)CC2)C1` (configuration not stated): the “bacterial growth OD600” value (polymyxin B 0.75 µg/mL) is 0.57.

As to `COCC(=O)N1CCC(Oc2ccc(C(=O)N3CCC(COC)CC3)cc2)CC1`, the “bacterial growth OD600” value (polymyxin B 1 µg/mL) is 1.01.

As to `COc1ccc(F)c(CN2CCC(Oc3cc(OC)ccc3C(=O)N3CCCC3)CC2)c1`, the “bacterial growth OD600” value (polymyxin B 1 µg/mL) was 0.105.

As to `CCOc1ccccc1CN1CCN(Cc2ccc(O)cc2)CC1CCO` (configuration not stated), the “bacterial growth OD600” value (polymyxin B 1 µg/mL) was 0.899.

As to `O=C(CCC1CCCN(C2CCCCCC2)C1)Nc1ccccc1F` (configuration not stated), under “polymyxin B 1 µg/mL”, the “bacterial growth OD600” value worked out at 0.98.

For `CN(Cc1ccccc1Cl)C(=O)C1CCC(=O)N(CCc2cccc(F)c2)C1` (configuration not stated), the “bacterial growth OD600” value (polymyxin B 1 µg/mL) stood at 0.851.

In the case of `COc1cccc(C(C)N(C)Cc2nc(COc3ccccc3)no2)c1` (configuration not stated), the “bacterial growth OD600” value (polymyxin B 1 µg/mL) was 0.84.

Take `Cc1nn(C)c(C)c1CN(C(=O)c1cc(COc2cccc3cnccc23)on1)C1CC1`: where the note is “polymyxin B 1 µg/mL”, the “bacterial growth OD600” value came to 0.881.

On to `COc1ccc(C(=O)NC2CC2)c(OC2CCN(Cc3ccc(C)o3)CC2)c1`, for which the “bacterial growth OD600” value (polymyxin B 1 µg/mL) was 0.932.

Take `O=C(NCc1cccnc1)c1cc(CN2CCC(Cc3ccccc3)CC2)on1`: under “polymyxin B 1 µg/mL”, the “bacterial growth OD600” value was 0.938.

`Cc1ccc(Oc2ncccc2CNC2Cc3ccccc3C2)cn1`: the “bacterial growth OD600” value (polymyxin B 1 µg/mL) amounted to 0.858.

In the case of `Cn1cc(CN2CCSCC2)c(-c2ccc(Oc3ccccc3)cc2)n1`, the “bacterial growth OD600” value (polymyxin B 1 µg/mL) was 0.043.

For `COc1ccc(C(=O)N(Cc2ccc(OCCCc3cccnc3)cc2)[C@H]2CCCCNC2=O)c(OC)c1`, the “bacterial growth OD600” value (polymyxin B 0.75 µg/mL) came out at 0.885.

Consider `O=C1CCC(CCC(=O)N2CCC(c3ccccc3F)C2)(Cc2cccs2)N1` (configuration not stated), for which the “bacterial growth OD600” value (polymyxin B 0.75 µg/mL) came to 1.03.

On to `O=C1CCCN1CC(=O)N1CCCC(CCc2cccc(C(F)(F)F)c2)C1` (configuration not stated), for which, for the setting “polymyxin B 0.75 µg/mL”, the “bacterial growth OD600” value came to 0.004.

With `COc1cccc(OCc2nc(C(=O)N(C)Cc3cnc4ccccn34)co2)c1`, the “bacterial growth OD600” value (polymyxin B 1 µg/mL) was 1.16.

Consider `CCC1CN(Cc2ccc3c(c2)OCO3)Cc2cc(OC)ccc2O1` (configuration not stated), for which the “bacterial growth OD600” value (polymyxin B 0.75 µg/mL) stood at 0.655.

Take `CCN(CCn1cccn1)C(=O)C1CCC(=O)N(CCCN2CCCC2=O)C1` (configuration not stated): the “bacterial growth OD600” value (polymyxin B 1 µg/mL) stood at 0.866.

Turning to `O=C(c1cc(COc2cccc(F)c2)[nH]n1)N1CCN(CC2CC2)CC1`, for the setting “polymyxin B 1 µg/mL”, the “bacterial growth OD600” value turned out to be 0.961.
